PubChem BioAssay AID1224826 – NIAID, 2016
This is an unselected part of about 17,000 reagents tested. Of all reagents, about 1,110 (6.6%) are marked active. 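Active means lowered or raised reporter signal; replicate intensities are raw and not normalised per plate.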 Unmarked entries are inactive. Not all columns of the deposit are shown.

Assay: 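Knock-downs that raise or lower Tnf reporter signal after endotoxin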 (primary screen)
Cell system: RAW264.7 G9 macrophages from mouse bearing reporters for p65 (GFP) and the Tnf promoter (mCherry)
Reagents: siRNA pool against mouse genes, 100 nM
Timing: 16 h of LPS stimulation, after 2 days of siRNA transfection
Challenge: bacterial lipopolysaccharide (Salmonella minnesota R595), 10 ng/ml
Read-out: 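Imaged Tnf reporter mCherry in nuclei, minus background, normalised per plate to the median and expressed as robust z-scores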
Scale: Tnf reporter robust z-score: higher = stronger Tnf promoter reporter signal after LPS
Hit rule: 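Called active when robust z-score is at most -1.3, matching the median of the Tlr4 knock-down control, or over 3; control wells and wells with under 50 cells never active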
Meaning of the calls: active = Tnf reporter clearly lowered or raised; inactive = no clear change in Tnf reporter

What is on record for Alkbh6 (alkB homolog 6) [SID315479048]?
Tnf reporter robust z-score: 1.52; fewer than 50 cells in well: enough cells in well

How did the screen score Crybg3 (beta-gamma crystallin domain containing 3) [SID315478335]?
Tnf reporter robust z-score: 1.97; fewer than 50 cells in well: enough cells in well

Which result is listed for Ccne2 (cyclin E2) [SID315465818]?
Tnf reporter robust z-score: 1.34; fewer than 50 cells in well: enough cells in well

For Osm (oncostatin M) [SID315468351], what does the deposit list?
Tnf reporter robust z-score: 1.65; fewer than 50 cells in well: enough cells in well

What did the screen give for Nlrc4 (NLR family, CARD domain containing 4) [SID315480817]?
Tnf reporter robust z-score: -0.87; fewer than 50 cells in well: enough cells in well

With Col9a2 (collagen, type IX, alpha 2) [SID315466068], how do the results read?
Tnf reporter robust z-score: -0.37; fewer than 50 cells in well: enough cells in well

What is on record for Or5b117 (olfactory receptor family 5 subfamily B member 117) [SID315480337]?
Tnf reporter robust z-score: -0.63; fewer than 50 cells in well: enough cells in well

What did the screen give for Dmrtc1a (DMRT-like family C1a) [SID315474150]?
Tnf reporter robust z-score: -0.95; fewer than 50 cells in well: enough cells in well

For Olfm2 (olfactomedin 2) [SID315479781], what does the deposit list?
Tnf reporter robust z-score: 0.75; fewer than 50 cells in well: enough cells in well

What is on record for Med21 (mediator complex subunit 21) [SID315476690]?
Tnf reporter robust z-score: -1.84 (active); fewer than 50 cells in well: enough cells in well

For Taf6l (TATA-box binding protein associated factor 6 like) [SID315478447], what does the deposit list?
Tnf reporter robust z-score: -0.65; fewer than 50 cells in well: enough cells in well

How did the screen score Rimoc1 (RAB7A interacting MON1-CCZ1 complex subunit 1) [SID315476527]?
Tnf reporter robust z-score: -0.27; fewer than 50 cells in well: enough cells in well

For Gpr156 (G protein-coupled receptor 156) [SID315479467], how do the results read?
Tnf reporter robust z-score: 0.4; fewer than 50 cells in well: enough cells in well

For Asah1 (N-acylsphingosine amidohydrolase 1) [SID315465524], how do the results read?
Tnf reporter robust z-score: -0.49; fewer than 50 cells in well: enough cells in well

Which result is listed for S1pr5 (sphingosine-1-phosphate receptor 5) [SID315476066]?
Tnf reporter robust z-score: -1.54 (active); fewer than 50 cells in well: enough cells in well

With Eps15l1 (EGFR pathway substrate 15-like 1) [SID315466541], what was measured?
Tnf reporter robust z-score: 1.55; fewer than 50 cells in well: enough cells in well

For Rpap2 (RNA polymerase II associated protein 2) [SID315478902], what was measured?
Tnf reporter robust z-score: 0.7; fewer than 50 cells in well: enough cells in well

What did the screen give for Or1o3 (olfactory receptor family 1 subfamily O member 3) [SID315480178]?
Tnf reporter robust z-score: -0.35; fewer than 50 cells in well: enough cells in well

For Map4 (microtubule-associated protein 4) [SID315468010], what was measured?
Tnf reporter robust z-score: 1.79; fewer than 50 cells in well: enough cells in well

With Tnfrsf11b [SID315468337], what does the deposit list?
Tnf reporter robust z-score: -1.96 (active); fewer than 50 cells in well: enough cells in well

For Ccdc90b (coiled-coil domain containing 90B) [SID315472390], what does the deposit list?
Tnf reporter robust z-score: 3.69 (active); fewer than 50 cells in well: enough cells in well

What is on record for Pygl (liver glycogen phosphorylase) [SID315476873]?
Tnf reporter robust z-score: 0.61; fewer than 50 cells in well: enough cells in well

What did the screen give for Gpx2 (glutathione peroxidase 2) [SID315467007]?
Tnf reporter robust z-score: 1.64; fewer than 50 cells in well: enough cells in well

How did the screen score Gjd2 (gap junction protein, delta 2) [SID315466910]?
Tnf reporter robust z-score: 0.73; fewer than 50 cells in well: enough cells in well

What did the screen give for Fam72a (family with sequence similarity 72, member A) [SID315476752]?
Tnf reporter robust z-score: -0.71; fewer than 50 cells in well: enough cells in well

What did the screen give for Dse (dermatan sulfate epimerase) [SID315477765]?
Tnf reporter robust z-score: -0.67; fewer than 50 cells in well: enough cells in well

How did the screen score Erv3 (endogenous retroviral sequence 3) [SID315474413]?
Tnf reporter robust z-score: 0.96; fewer than 50 cells in well: enough cells in well

Called active, of those listed so far:
Med21 (mediator complex subunit 21) [SID315476690]: Tnf reporter robust z-score = -1.84 (active); fewer than 50 cells in well = enough cells in well
S1pr5 (sphingosine-1-phosphate receptor 5) [SID315476066]: Tnf reporter robust z-score = -1.54 (active); fewer than 50 cells in well = enough cells in well
Tnfrsf11b [SID315468337]: Tnf reporter robust z-score = -1.96 (active); fewer than 50 cells in well = enough cells in well
Ccdc90b (coiled-coil domain containing 90B) [SID315472390]: Tnf reporter robust z-score = 3.69 (active); fewer than 50 cells in well = enough cells in well
